The text below walks through data of article PMC8842248.

Amino acid sequences for entries named in this document (tags omitted).
UniProt Q9H0U4: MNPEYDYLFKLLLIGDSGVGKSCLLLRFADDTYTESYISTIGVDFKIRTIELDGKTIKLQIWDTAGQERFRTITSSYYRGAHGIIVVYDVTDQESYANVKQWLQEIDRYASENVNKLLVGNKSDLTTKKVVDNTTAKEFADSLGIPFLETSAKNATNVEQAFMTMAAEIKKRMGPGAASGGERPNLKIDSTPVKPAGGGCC

These are yes or no findings as the source states them, for the method shown.

In this assay the target is GST-RAB1B, nonprenylated (UniProt Q9H0U4). The assay can be described thus: pull-down; 20 μg GST-RAB1B with 20 μg PDE6D on GST-resin, 20 mM Tris pH 7.5, 200 mM NaCl, 1 mM DTT, 5 mM MgCl2, room temperature 30 min, four washes, glutathione elution, western blot; both purified. In general terms: Immunoblotting shows a protein as a band on a membrane.

As to “PDE6D (phosphodiesterase 6 delta), wild type, polyhistidine tag removed (from UniProt O43924 1-150)”, the binding result is given as “no binding (tested: 20 μg of GST-RAB1B with 20 μg of PDE6D)”.
